From paper doi:10.1101/2024.06.02.597006 (bioRxiv, 2024)
Results are given in words; binding and its absence hold for the method and conditions named. For part of these data: In cells and extracts the contact can be indirect. Some results given as binding are weak or reduced against the parent protein; the word gives no strength. Where a sequence is shown, tags or fusion partners need not be part of it.

Experiments:
[1] = biological target: T1, His-SUMO-Pex5 (full-length PEX5, 1-612, Saccharomyces cerevisiae) (Saccharomyces cerevisiae) (UniProt P35056); test: pull-down
T1 sequence: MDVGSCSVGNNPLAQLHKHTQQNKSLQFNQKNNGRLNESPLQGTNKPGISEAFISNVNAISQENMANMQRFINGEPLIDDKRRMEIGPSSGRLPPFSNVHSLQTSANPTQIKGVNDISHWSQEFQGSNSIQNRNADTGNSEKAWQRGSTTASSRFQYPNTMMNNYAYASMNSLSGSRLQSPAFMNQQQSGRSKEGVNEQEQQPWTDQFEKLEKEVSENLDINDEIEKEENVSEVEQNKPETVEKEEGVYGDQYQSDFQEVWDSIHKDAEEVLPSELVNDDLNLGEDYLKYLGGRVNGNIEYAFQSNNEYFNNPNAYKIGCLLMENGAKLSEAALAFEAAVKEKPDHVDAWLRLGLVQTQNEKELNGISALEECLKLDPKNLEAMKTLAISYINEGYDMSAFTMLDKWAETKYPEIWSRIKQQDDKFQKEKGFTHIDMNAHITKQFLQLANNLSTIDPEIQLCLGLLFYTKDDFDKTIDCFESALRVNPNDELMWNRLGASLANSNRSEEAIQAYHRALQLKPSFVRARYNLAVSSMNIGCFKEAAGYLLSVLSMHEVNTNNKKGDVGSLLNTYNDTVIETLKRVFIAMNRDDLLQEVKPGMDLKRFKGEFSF

[2] = biological target: T2, Pex5 (full-length yeast Pex5, 1-612), His-Sumo cleaved off (Saccharomyces cerevisiae) (UniProt P35056); test: cryo-EM structure
T2 sequence: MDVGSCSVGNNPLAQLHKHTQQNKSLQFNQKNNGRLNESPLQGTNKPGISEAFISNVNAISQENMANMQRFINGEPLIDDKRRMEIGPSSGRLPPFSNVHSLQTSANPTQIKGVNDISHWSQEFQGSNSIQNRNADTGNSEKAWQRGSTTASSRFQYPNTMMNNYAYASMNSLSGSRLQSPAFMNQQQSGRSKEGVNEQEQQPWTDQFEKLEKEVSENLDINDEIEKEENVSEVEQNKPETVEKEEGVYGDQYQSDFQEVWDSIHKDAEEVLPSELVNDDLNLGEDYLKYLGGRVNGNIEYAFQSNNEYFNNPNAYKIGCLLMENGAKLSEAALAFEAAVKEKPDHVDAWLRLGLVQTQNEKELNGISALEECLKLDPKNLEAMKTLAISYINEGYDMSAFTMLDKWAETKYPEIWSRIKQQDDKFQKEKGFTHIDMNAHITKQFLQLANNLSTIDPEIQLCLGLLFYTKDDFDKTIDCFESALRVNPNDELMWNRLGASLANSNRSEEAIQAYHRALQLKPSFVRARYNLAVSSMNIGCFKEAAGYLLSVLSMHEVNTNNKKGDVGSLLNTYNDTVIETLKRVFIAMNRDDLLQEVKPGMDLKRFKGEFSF

B1: FLAG-Eci1 (yeast delta3, delta2-Enoyl-CoA Isomerase 1) (enzyme, Saccharomyces cerevisiae (yeast), UniProt Q05871 1-280, looked up)
chain: MSQEIRQNEKISYRIEGPFFIIHLMNPDNLNALEGEDYIYLGELLELADRNRDVYFTIIQSSGRFFSSGADFKGIAKAQGDDTNKYPSETSKWVSNFVARNVYVTDAFIKHSKVLICCLNGPAIGLSAALVALCDIVYSINDKVYLLYPFANLGLITEGGTTVSLPLKFGTNTTYECLMFNKPFKYDIMCENGFISKNFNMPSSNAEAFNAKVLEELREKVKGLYLPSCLGMKKLLKSNHIDAFNKANSVEVNESLKYWVDGEPLKRFRQLGSKQRKHRL
- binding [1]: binds
- binding [2]: binds

B2: FLAG-Eci1 ΔPTS1 (Eci1 without its last three amino acids 278HRL280) (domain or fragment, UniProt Q05871 1-277)
chain: MSQEIRQNEKISYRIEGPFFIIHLMNPDNLNALEGEDYIYLGELLELADRNRDVYFTIIQSSGRFFSSGADFKGIAKAQGDDTNKYPSETSKWVSNFVARNVYVTDAFIKHSKVLICCLNGPAIGLSAALVALCDIVYSINDKVYLLYPFANLGLITEGGTTVSLPLKFGTNTTYECLMFNKPFKYDIMCENGFISKNFNMPSSNAEAFNAKVLEELREKVKGLYLPSCLGMKKLLKSNHIDAFNKANSVEVNESLKYWVDGEPLKRFRQLGSKQRK
- binding [1]: binds
